# Patent publication US20170174725 (published 2017)
# Assay: general procedure: Fmoc solid-phase peptide synthesis; PL-Rink resin (load. 0.55 mmol/g); HOBt/DIC/pyridine; PyBOP for cyclisation
# [1] = whole synthesis, HPLC area-%, scale of the general procedure 2.75 mmol
# [2] = whole synthesis, HPLC area-%, Aquity UPLC BEH130 C18, UV 214 nm, scale 9.60 mmol
# [3] = whole synthesis, scale 9.60 mmol
substance,measurement,setting,value
H-GYIQNEGLG-NH2,crude HPLC purity,[1],67.4%
H-GYIQNEPLG-NH2,crude HPLC purity,"whole synthesis, HPLC area-%, Aquity UPLC BEH130 C18, UV 214 nm, scale of the general procedure 2.75 mmol, run 1",79.0%
same,crude HPLC purity,"whole synthesis, HPLC area-%, Aquity UPLC BEH130 C18, UV 214 nm, scale of the general procedure 2.75 mmol, run 2",83.3%
same,crude HPLC purity,"whole synthesis, HPLC area-%, Aquity UPLC BEH130 C18, UV 214 nm, scale of the general procedure 2.75 mmol, run 3",78.5%
same,crude HPLC purity,"whole synthesis, HPLC area-%, Aquity UPLC BEH130 C18, UV 214 nm, scale of the general procedure 2.75 mmol, run 4",82.7%
same,crude HPLC purity,[1],87.3%
same,crude yield,"whole synthesis, scale of the general procedure 2.75 mmol, run 1",90%
same,crude yield,"whole synthesis, scale of the general procedure 2.75 mmol, run 2",96%
c[Gly-Tyr-Ile-Gln-Asn-Glu]-Gly-Leu-Gly-NH2,crude HPLC purity,"cyclisation step, HPLC area-%",56.6%
same,crude HPLC purity,[1],15.9%
same,final HPLC purity,"whole synthesis, HPLC area-%, scale of the general procedure 2.75 mmol, run 1",99.2%
same,final HPLC purity,"whole synthesis, HPLC area-%, scale of the general procedure 2.75 mmol, run 2",99.7%
same,crude HPLC purity,"whole synthesis, UV 214 nm, scale of the general procedure 2.75 mmol",62.7%
same,crude yield,"whole synthesis, total, scale of the general procedure 2.75 mmol, run 1",9%
same,crude yield,"whole synthesis, total, scale of the general procedure 2.75 mmol, run 2",38%
same,crude yield,"whole synthesis, total, scale of the general procedure 2.75 mmol, run 3",31%
same,crude mass,"whole synthesis, run 1",2.01 g
same,isolated mass,"whole synthesis, run 1",0.708 g
same,crude mass,"whole synthesis, run 2",2.39 g
same,isolated mass,"whole synthesis, run 2",0.444 g
c[Gly-Tyr-Ile-Gln-Asn-Glu]-trans-4-fluoro-Pro-Leu-Gly-NH2,final HPLC purity,"whole synthesis, HPLC area-%, Aquity UPLC BEH130 C18, UV 214 nm, scale 5.50 mmol",98.8%
same,final HPLC purity,[2],98.8%
same,isolated yield,"whole synthesis, scale 5.50 mmol, run 1",34%
same,isolated yield,"whole synthesis, scale 5.50 mmol, run 2",25%
same,isolated yield,[3],39%
c[Gly-Tyr-Leu-Gln-Asn-Glu]-Pro-Leu-Gly-NH2,crude HPLC purity,"cyclisation step, HPLC area-%",71.4%
same,final HPLC purity,[2],98.2%
same,isolated yield,[3],40%
same,crude yield,"whole synthesis, scale of the general procedure 2.75 mmol",60%
